Experimental data published in the supplement of paper PMC5949888.
Most values lie at the floor of the assay. Slopes are relative: functional sequences can read slightly below zero.

Each substance was assayed on Saccharomyces cerevisiae PS128 hsf1 delta, HSF1(1-493) fusion (assay: growth estimate (transactivation domain function in HSF1 fusion, heat-shock survival) (a.u. (slope of normalised read count over time)); higher = stronger growth at 37°C, i.e. more transactivation activity). Details: library: random library.
Protocol: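 Random 60-nt DNA library encoding peptides of up to 20 aa, fused to the C-terminus of yeast HSF1 residues 1-493 (C-terminal TAD deleted) and expressed from the native HSF1 promoter on a CEN plasmid in hsf1-deleted S. cerevisiae PS128. Cells were selected at 37°C on -trp 5-FOA plates for 0, 2, 4, 6 and 8 days and amplicons were sequenced. Growth estimate is the slope of a robust linear fit of total-sum-normalised read counts (normalised to the first time point) over time, using at least 2 replicates. Sequences are classed functional (TAD activity) above a threshold of -0.13, set from stop-codon control sequences.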

Substance | growth estimate
IDWIIERCTSHLETISI | < -0.25
IDYTPAL | < -0.25
IECVLTQMHPLGRLICGARL | < -0.25
IEF | < -0.25
IEFHIHELVRETYAGSVHLP | < -0.25
IEFLPWPKYLQVSIGPGA | < -0.25
IEFSDGACWSRLSSRHACLG | < -0.25
IEFVTMGIPFRGCASISHEH | < -0.25
IEGFHSKRRRAMDIESGFQF | 0.851
IEGRTFTSAVVRSCRRLWPN | < -0.25
IEGSKTRRRPVDKCRKGRDD | < -0.25
IEIFATIR | -0.241
IEIITSRACAVSWRCLERRV | < -0.25
IEKRIPLAKSRTAISRF | < -0.25
IENDCL | < -0.25
IEP | < -0.25
IEQNTGTLLNLRIHHGSMFA | < -0.25
IERSRLDCGDQIFRGVGHYR | < -0.25
IERYTVLTGPLHRQQVNS | < -0.25
IESESECDGTRSGRMR | < -0.25
IFCCRPRKCFRFPGTMDDVD | < -0.25
IFCEERPSI | < -0.25
IFCICR | < -0.25
IFCSWASKGLNKPVSDFCDA | < -0.25
IFDRASRWMCTV | -0.243

Substance | growth estimate
IFIHDPRMGTRQWSLSTPTS | < -0.25
IFLSGRNARDPARIIGHKHR | < -0.25
IFLTLFFSRAPTVARCAVHF | < -0.25
IFPYLYPLVLVAAASRPSRA | < -0.25
IGAPPGNRPRHPAATNMSVW | < -0.25
IGAVRLSLQLSVIEGLMQSA | < -0.25
IGAYTGVVYSISGDYNGVPS | < -0.25
IGDSS | < -0.25
IGDW | < -0.25
IGGGFRVNVRSLTRLLRPLH | < -0.25
IGHAKKESGCVSPIGRHSST | < -0.25
IGHARPRYTT | -0.25
IGIFE | < -0.25
IGILW | < -0.25
IGIWCFLIGNKHMRL | < -0.25
IGKLGTAIPREEVLREVSQG | < -0.25
IGLGGI | < -0.25
IGLH | < -0.25
IGLL | < -0.25
IGLRESITNRSCFRLQL | < -0.25
IGLRVLRGYPH | < -0.25
IGNRFS | < -0.25
IGPHRRYRLFVLASYRPCAC | < -0.25
IGPVPILPTA | < -0.25
IGQGISAAVELPGWSTLATY | < -0.25

Some values from above.
IGPVPILPTA – growth estimate: < -0.25
IGGGFRVNVRSLTRLLRPLH – growth estimate: < -0.25

The listing continues.

Substance | growth estimate
IGQRIQCIKLLQGTTIYMVN | < -0.25
IGRGTEHALVGMGLVPYLRK | < -0.25
IGRKSLLPCSGLAIV | < -0.25
IGRQRYSHLTLKYCQDLHVA | < -0.25
IGRSWTYVYRQAKAM | < -0.25
IGSHGG | < -0.25
IGSMCQTSGYASN | < -0.25
IGSQHQRGRDEPNSEPF | < -0.25
IGSSGCSRKAFSYISHMTVL | -0.245
IGSYGGVLPTVPSVADGRLA | < -0.25
IGTMRGVFEDIGKIKRGMFE | < -0.25
IGTRRTIMNWPTDSC | < -0.25
IGVHTIVEVLCRYELGFPGR | < -0.25
IGVQAKVRGDLVW | < -0.25
IGVRGIQGAAQSVCWHWATD | < -0.25
IGVRLCPLPNTRRISIGGVY | < -0.25
IGVRVAARAGRQHQVSVHTA | < -0.25
IGVSSKSGEL | < -0.25
IGW | 0.0112
IGYGGTR | < -0.25
IGYMTGIVYYVIDPDHCRGS | < -0.25
IHA | < -0.25
IHASG | < -0.25
IHCGD | < -0.25
IHCKVVFTLALYVRD | < -0.25

In another format: entries from further up
Substance,growth estimate
IGAVRLSLQLSVIEGLMQSA,< -0.25
IGAYTGVVYSISGDYNGVPS,< -0.25
IGDSS,< -0.25
IGDW,< -0.25
IGGGFRVNVRSLTRLLRPLH,< -0.25
IGHAKKESGCVSPIGRHSST,< -0.25
IGHARPRYTT,-0.25
IGIFE,< -0.25
IGILW,< -0.25
IGIWCFLIGNKHMRL,< -0.25
IGKLGTAIPREEVLREVSQG,< -0.25
IGLGGI,< -0.25
IGLH,< -0.25
IGLL,< -0.25
IGLRESITNRSCFRLQL,< -0.25
IGLRVLRGYPH,< -0.25
IGNRFS,< -0.25
IGPHRRYRLFVLASYRPCAC,< -0.25
IGPVPILPTA,< -0.25
IGQGISAAVELPGWSTLATY,< -0.25
IGQRIQCIKLLQGTTIYMVN,< -0.25
IGRGTEHALVGMGLVPYLRK,< -0.25
IGRKSLLPCSGLAIV,< -0.25
IGRQRYSHLTLKYCQDLHVA,< -0.25
IGRSWTYVYRQAKAM,< -0.25
IGSHGG,< -0.25
IGSMCQTSGYASN,< -0.25
IGSQHQRGRDEPNSEPF,< -0.25
IGSSGCSRKAFSYISHMTVL,-0.245
IGSYGGVLPTVPSVADGRLA,< -0.25
IGTMRGVFEDIGKIKRGMFE,< -0.25
IGTRRTIMNWPTDSC,< -0.25
IGVHTIVEVLCRYELGFPGR,< -0.25
IGVQAKVRGDLVW,< -0.25
IGVRGIQGAAQSVCWHWATD,< -0.25
IGVRLCPLPNTRRISIGGVY,< -0.25
IGVRVAARAGRQHQVSVHTA,< -0.25
IGVSSKSGEL,< -0.25
IGW,0.0112
IGYGGTR,< -0.25
IGYMTGIVYYVIDPDHCRGS,< -0.25
IHA,< -0.25

More records.

Substance | growth estimate
IHD | -0.245
IHKAMEVGKVE | < -0.25
IHLRATDYVYCPCLGCANWR | < -0.25
IHN | < -0.25
IHQGLREKHVQVRAAILCGR | < -0.25
IHSKL | < -0.25
IHSSFIKGRPSCLPFQPSHL | < -0.25
IHTVMYQRAPSPSRCQMVTR | < -0.25
IHYTSSAPNVPLPPSLKACK | < -0.25
IIALGSGDDIFVSIRPLRYA | < -0.25
IICTDAGM | < -0.25
IICVQRRIYPVLGVPGTQCL | < -0.25
IILP | < -0.25
IILV | < -0.25
IILVGS | < -0.25
IIM | < -0.25
IININGVSGTRGRGLHSLRW | < -0.25
IIPNA | < -0.25
IIRPTKFVFGSQDRLAVVGY | < -0.25
IIRVTVGLLIDRPCGR | < -0.25
IISV | < -0.25
IITEGRSVRGINCGRSIGPA | < -0.25
IIVRIRDPRPYTGMLSECQT | < -0.25
IIWKILPVLRSSARPCSKQR | < -0.25
IIYECSFPQRTDDVGIGTYR | < -0.25

Substance | growth estimate
IKATGHMSSRAGN | < -0.25
IKDSLLPTVLT | < -0.25
IKKLMRTEVMLIEDSYTTWF | < -0.25
IKKT | < -0.25
IKPGCQSLQIGRNSFERDWP | < -0.25
IKRAEALVLAALTRWTLVWR | < -0.25
IKRWF | < -0.25
IKTNGSS | < -0.25
IKVHQLKLRSKGRIRQLSAG | < -0.25
IKVY | < -0.25
IKYSEI | < -0.25
IKYSGGGSLCSSVLVSLGTV | -0.25
ILAGKCGWGSESLLGSSLCV | < -0.25
ILAPSSRHKTPCPVAGETSR | < -0.25
ILAQDYLEMH | < -0.25
ILASLPMTRYNVNLACR | < -0.25
ILCATARRTDDTSDGGYSIE | < -0.25
ILCVVIQTTPFGRQ | < -0.25
ILDISYRFVKR | < -0.25
ILEHDTGR | < -0.25
ILESGRRLGNSRVAVPTHVN | < -0.25
ILFRFSAHYIALVPGVVRAL | < -0.25
ILGCIFGSIIGTKHSTAAFM | < -0.25
ILGKGSVWGHDAGTHGRSDS | < -0.25
ILGRSLHGR | < -0.25

Substance | growth estimate
ILGSYVHVGLTEALA | < -0.25
ILGWAR | < -0.25
ILHGLTGIDQAGLARVARCC | < -0.25
ILIFTRYF | < -0.25
ILIPASLFTPNPAGSGETHC | < -0.25
ILISAWGRSVQRPFHVRSHR | < -0.25
ILKLVRASQSPASAAHGFRV | < -0.25
ILKWMLGAR | < -0.25
ILL | < -0.25
ILLDTLARTSMRPLEVI | < -0.25
ILLPCDVDAEHV | < -0.25
ILLPSLRGWTMSPRGAPPGG | < -0.25
ILLSVTELHTEFRTLHFRPI | < -0.25
ILLVRRTPASIKCILG | -0.245
ILMGV | < -0.25
ILPLKVCRHPGGVRASKLNS | < -0.25
ILPLMAPRSSGRYVSRIRYS | -0.246
ILQRTSI | < -0.25
ILR | < -0.25
ILRGKRCGWYKGDGAHSTPR | < -0.25
ILRLRKREQGRSPVGCQKFV | < -0.25
ILRSSGLSPFLEEAM | < -0.25
ILRVFI | < -0.25
ILS | < -0.253
ILSA | < -0.25

Substance | growth estimate
ILSCTGRESVGPFGCWCGLA | < -0.25
ILSGGSDWVSRR | < -0.25
ILSS | < -0.25
ILSV | < -0.25
ILTGVI | < -0.25
ILTIGGEWT | < -0.25
ILTLGGMTGVLTFNYA | < -0.25
ILVTYRLSNRR | < -0.25
ILVYKSQCSGYV | < -0.25
ILW | < -0.25
IMECRGLARVAVCGVLFCST | -0.247
IMGISNRFVV | -0.231
IMGRLYLAYGPRL | < -0.25
IMKITYFLGCDS | < -0.25
IMQVLPFGGSYVQESSETRR | < -0.25
IMRRPVRSIQRPANHLLNPQ | < -0.25
IMSLNSFPGRAKQKTSTFCD | -0.245
IMSRGQVRTGCLDACN | < -0.25
IMWWQYGRPKRN | -0.246
INDVGGWAYL | -0.198
ING | < -0.25
INGET | 0.058
INGKSIEAQVPPRSLGFNDL | < -0.25
INHGQLIYMCFLGLFTQTSA | < -0.25
INKCRCLNRKP | < -0.25

Substance | growth estimate
INKLGSFCTWFL | -0.156
INP | < -0.25
INR | < -0.25
INRCIVGSKV | < -0.25
INRHASGRIHWRCGLCVNRK | < -0.25
INRVDI | < -0.25
INTGTNAMGGKVRTQSGPYR | < -0.25
INTPCAGTDRKS | < -0.25
INVKRSCRISEYDTTFLVIT | < -0.25
INVSISKIYPCADSPGYFCS | < -0.25
INVVDEGRPRYPACQ | < -0.25
INYVHPQRASVVSWLGKPVH | 0.356
IPCKSAVLWYRDRRASGDHA | < -0.25
IPCPFQAPASRKRGALDD | < -0.25
IPDSIN | < -0.25
IPELVHRGGASLNWTEPRVR | < -0.25
IPGSPMIRKVGNIDPRFVTH | < -0.25
IPGVSFRSAALGLPGTTVQA | < -0.25
IPK | < -0.25
IPKITAIWEFCASYTRTKYP | < -0.25
